From PubChem BioAssay AID485318 (Broad Institute, 2010) come the findings set out here.

Amino acid sequences for entries named in this document (tags omitted). A change or cut given only in a name is not applied to a line headed by its entry.
UniProt O15379: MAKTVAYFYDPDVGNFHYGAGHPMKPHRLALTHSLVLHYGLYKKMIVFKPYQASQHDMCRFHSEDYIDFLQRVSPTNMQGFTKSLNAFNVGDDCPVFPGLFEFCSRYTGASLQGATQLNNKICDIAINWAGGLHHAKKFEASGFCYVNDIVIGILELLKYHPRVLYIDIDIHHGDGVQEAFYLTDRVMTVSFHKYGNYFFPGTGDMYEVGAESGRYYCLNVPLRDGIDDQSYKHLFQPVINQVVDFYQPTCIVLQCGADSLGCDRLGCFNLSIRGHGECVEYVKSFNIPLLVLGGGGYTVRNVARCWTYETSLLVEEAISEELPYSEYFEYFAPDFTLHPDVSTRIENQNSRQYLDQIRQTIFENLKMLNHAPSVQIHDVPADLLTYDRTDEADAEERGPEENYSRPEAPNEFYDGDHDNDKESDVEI

Among all 1,400 compounds or so, fewer than 10 were called active.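 How the source made its calls: active means fluorescence-lowering compounds whose fitted half-maximal concentration is at or below ten times the highest valid dose tested; inconclusive means flat curve at 30 to 70% inhibition, or poor fit; inactive means the rest.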 This is one part of the list.

This test addresses Histone deacetylase 3 (Homo sapiens) (UniProt O15379). Put plainly: inhibition of human HDAC3 enzymatic activity – biochemical, fluorescence, cherry-picked samples, counter-screen for JMJD2C/GASC1 demethylase inhibitor project, dose response (AID 485318).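 Further: enzyme preincubated with compound before substrate and trypsin were added; 0% = neutral control wells and -100% = SAHA positive control wells.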 The note with it: recombinant HDAC3, fluorogenic peptide/trypsin coupled; at 12 µM (top of the series). For orientation: A counterscreen serves to expose hits that act by an unwanted route or on another target.
On to `CCOC(=O)N1CCN(C(=S)NC(=O)c2ccc(F)cc2)CC1`, for which the activity change, negative = inhibition is inactive: 0.544%.

As to `COc1ccc(/C=C2/CC/C(=C\c3ccc(OC)c(OC)c3OC)C2=O)c(OC)c1OC`, the activity change, negative = inhibition is inactive: 0.948%.

As for `COc1ccc(/C=N/N=C2\CC3CCC2(C)C3(C)C)cc1O` (centres undefined), the activity change, negative = inhibition was inactive: 0.124%.

As for `Cc1ccc(C)c(N2CCN(C(=O)Cn3ncc4c([nH]c5ccc(C)cc54)c3=O)CC2)c1`, the activity change, negative = inhibition is inactive: -0.141%.

`COc1cc(OC)cc(C(=O)Nc2ccc(-n3cnnn3)c(C)c2)c1`: the activity change, negative = inhibition was inactive: -0.279%.

Consider `O=c1oc2ccccc2cc1-c1nc(-c2cccs2)cs1`, for which the activity change, negative = inhibition was inactive: 0.294%.

In the case of `Cc1c(Cl)c(-c2n[nH]c(=S)n2-c2ccc(F)cc2)nn1C`, the activity change, negative = inhibition is inactive: -0.658%.

Take `CC(C)Cn1c(N)c(C(=O)COC(=O)c2c(O)c(Cl)cc(Cl)c2Cl)c(=O)n(C)c1=O`: the activity change, negative = inhibition is inactive: 0.179%.

With `OCc1csc(=Nc2ccccc2)n1-c1ccccc1`, the activity change, negative = inhibition was inactive: -0.375%.

Regarding `CS(=O)(=O)N(CC(=O)Nc1ccccc1C(=O)NCCc1ccccc1)c1ccc2c(c1)OCCO2`, the activity change, negative = inhibition was inactive: 0.133%.

For the compound `Clc1ccc(N=c2ssnc2Cl)nc1`, the activity change, negative = inhibition was inactive: 0.426%.

Turning to `CCC(C)(C)NC(=O)C(c1ccc(C)o1)N(Cc1cccs1)C(=O)Cn1nnc2ccccc21` (centres undefined), the activity change, negative = inhibition is inactive: -0.314%.

For `Cc1nnc(SCC(=O)Nc2sccc2C(N)=O)n1Cc1ccccc1`, the activity change, negative = inhibition was inactive: 0.0899%.

Turning to `COC(=O)[C@]1(Cc2ccccc2)N[C@H](CN(C)S(=O)(=O)c2ccc(-c3ccccc3)cc2)[C@@H]2C(=O)N(C)C(=O)[C@@H]21`, the activity change, negative = inhibition was inactive: 0.468%.

Take `CCCCCCC(=O)N1CCN(c2cc3c(cc2F)c(=O)c(C(=O)O)cn3CC)CC1`: the activity change, negative = inhibition is inactive: 0.517%.

In the case of `CC(CC(=O)Nc1cc([N+](=O)[O-])ccc1Cl)c1ccccc1` (centres undefined), the activity change, negative = inhibition is inactive: 0.176%.

For `CCOC(=O)c1c(S(=O)(=O)NCC(=O)Nc2cccc(C)c2C)c(C)n(C)c1C`, the activity change, negative = inhibition was inactive: 1.31%.

With `CCN(c1ccc(NC(=O)CCNC(=O)c2ccco2)cc1)C(C)C`, the activity change, negative = inhibition was inactive: 0.0545%.

For `O=C(Nc1nnc(-c2ccco2)o1)c1ccc(N2C(=O)CCC2=O)cc1`, the activity change, negative = inhibition is inactive: -0.548%.

`CC1CC(NC(=O)N(C)C)N(C)C(=O)N1` (centres undefined): the activity change, negative = inhibition was inactive: -0.63%.

As for `CC(=O)Nc1ccc(NC(=O)CSc2ncnn2-c2ccccc2)cc1`, the activity change, negative = inhibition is inactive: -0.219%.

In the case of `COc1ccc(OC)c(/C=N/NC(=O)CNC(=O)c2ccc(S(=O)(=O)N3CCOCC3)cc2)c1`, the activity change, negative = inhibition is inactive: 0.507%.

For `CCC(=O)N1CCc2cc(Br)cc(S(=O)(=O)CC(=O)OC)c21`, the activity change, negative = inhibition is inactive: 0.319%.

On to `COc1ccc(OC)c(C2=NOC(C(=O)NCCN3CCOCC3)C2)c1` (centres undefined), for which the activity change, negative = inhibition was inactive: 0.208%.

In the case of `O=C(NN=C1CCCCCCCCCCC1)c1cccc(S(=O)(=O)N2CCOCC2)c1`, the activity change, negative = inhibition is inactive: 0.282%.

Turning to `COC(C/C=C\[C@H](O)[C@H](C)OCc1ccccc1)OC`, the activity change, negative = inhibition is inactive: 0.602%.

On to `OCc1ccc(-c2nn(Cc3ccccc3)c3ccccc23)o1`, for which the activity change, negative = inhibition is inactive: 1.34%.

Regarding `COc1ccccc1C(=O)OCc1c(-c2ccccc2)ncc2ccccc12`, the activity change, negative = inhibition was inactive: -0.395%.

In the case of `Cn1c(=O)[nH]c(=O)c2c1nc(N1CCOCC1)n2CCc1ccccc1`, the activity change, negative = inhibition was inactive: 0.223%.

As for `Cc1cc(Cl)ccc1OCc1nc(-c2ccncc2)no1`, the activity change, negative = inhibition is inactive: 0.0905%.

`c1ccc(Nc2n[nH]nc2-c2ccccc2)cc1`: the activity change, negative = inhibition is inactive: 0.651%.

For `COc1ccccc1NC(=O)c1cccs1`, the activity change, negative = inhibition is inactive: 0.291%.

As to `COc1ccc(CNC(=O)C2(CC3CC(c4ccccc4)=NO3)CCNCC2)cc1` (centres undefined), the activity change, negative = inhibition is inactive: -0.0236%.

On to `CSc1nsc(SCC(=O)Nc2c(C)n(C)n(-c3ccccc3)c2=O)n1`, for which the activity change, negative = inhibition was inactive: -0.59%.

Regarding `COC(=O)COc1ccc(S(=O)(=O)N2CCOCC2)cc1C`, the activity change, negative = inhibition is inactive: -0.254%.

As to `CCN(C[C@H]1N[C@@](C)(C(=O)OC)[C@H]2C(=O)N(C)C(=O)[C@@H]12)C(=O)Nc1ccc(OC)cc1`, the activity change, negative = inhibition was inactive: -0.229%.

Consider `O=C(CN1C(=O)c2ccccc2C1=O)NCC1COc2ccccc2O1` (centres undefined), for which the activity change, negative = inhibition is inactive: 0.934%.

As for `CCN(CC(=O)NCC1CCCO1)S(=O)(=O)c1ccc(Cl)cc1` (centres undefined), the activity change, negative = inhibition was inactive: 0.153%.

Take `Cc1[nH][nH]c(=O)c1C(c1c(C)[nH][nH]c1=O)c1cn(Cc2cccc3ccccc23)c2ccccc12`: the activity change, negative = inhibition is inactive: 0.591%.

With `COc1ccc(NC(=O)CCCN(C)S(=O)(=O)c2ccc(C)cc2)cc1`, the activity change, negative = inhibition is inactive: 0.0926%.

In the case of `CC(C)(C)n1nnnc1C(c1cccnc1)N1CCN(c2ccccc2)CC1` (centres undefined), the activity change, negative = inhibition was inactive: 0.251%.

Take `COc1cc(NC(=O)CSc2nnnn2Cc2ccc3c(c2)OCO3)cc(OC)c1`: the activity change, negative = inhibition is inactive: 0.326%.

With `Cc1ccc(O)c(C(=O)c2cc(C#N)c(=O)n(CC3CCCO3)c2)c1` (centres undefined), the activity change, negative = inhibition was inactive: -0.325%.

Regarding `COc1ccccc1-n1c(SCC(=O)N2CCCC2)nc2cccnc21`, the activity change, negative = inhibition is inactive: 0.166%.

On to `Cc1ccc(NC(=O)C(=O)NCCN2CCN(C(=O)C(c3ccccc3)c3ccccc3)CC2)cc1`, for which the activity change, negative = inhibition was inactive: -0.583%.

Take `CCOC(=O)C1=C(Cc2ccc(F)cc2)C(=O)c2ccccc2C1=O`: the activity change, negative = inhibition is inactive: 0.102%.

Take `Cc1ccc(C(=O)NCC(=O)OCC(=O)Nc2ccc(Cl)cc2C(F)(F)F)cc1C`: the activity change, negative = inhibition was inactive: -0.15%.

With `COc1ccc(NC(=O)N(C)C[C@H]2Oc3c(NC(=O)Nc4ccccc4)cccc3C(=O)N([C@H](C)CO)C[C@@H]2C)cc1`, the activity change, negative = inhibition was inactive: -0.0534%.

Regarding `Brc1ccc(-c2csc(N3CCc4ccccc4C3)n2)cc1`, the activity change, negative = inhibition was inactive: -0.797%.
